Experimental findings from article doi:10.1101/2022.08.28.505601 are described below.

Chains of the proteins cited; added tags and fusions are not shown. Lines headed by an entry give the natural chain unless they say otherwise; changes in a name come on top. A line that says so, or that is headed by a name, gives the form on record, which may keep a tag or linker.
Promyelocytic Leukemia Protein isoform IV fused to mRED (P29590, form named): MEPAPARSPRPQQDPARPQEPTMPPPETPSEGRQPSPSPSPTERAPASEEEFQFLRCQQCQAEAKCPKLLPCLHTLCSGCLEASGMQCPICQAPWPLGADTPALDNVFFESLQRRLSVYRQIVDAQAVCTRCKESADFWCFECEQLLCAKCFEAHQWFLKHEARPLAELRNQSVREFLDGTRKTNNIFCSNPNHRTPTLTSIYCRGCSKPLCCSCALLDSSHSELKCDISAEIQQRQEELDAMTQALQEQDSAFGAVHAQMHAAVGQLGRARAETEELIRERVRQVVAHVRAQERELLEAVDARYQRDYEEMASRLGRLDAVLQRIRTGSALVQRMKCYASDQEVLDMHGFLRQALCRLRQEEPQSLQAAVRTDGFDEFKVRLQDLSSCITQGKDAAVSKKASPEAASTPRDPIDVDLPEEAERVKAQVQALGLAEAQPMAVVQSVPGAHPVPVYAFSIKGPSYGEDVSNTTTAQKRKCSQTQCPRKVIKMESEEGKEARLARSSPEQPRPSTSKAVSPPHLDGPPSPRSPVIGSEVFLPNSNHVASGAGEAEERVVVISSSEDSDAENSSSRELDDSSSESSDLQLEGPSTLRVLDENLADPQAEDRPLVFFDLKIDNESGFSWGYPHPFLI
UniProt O95863: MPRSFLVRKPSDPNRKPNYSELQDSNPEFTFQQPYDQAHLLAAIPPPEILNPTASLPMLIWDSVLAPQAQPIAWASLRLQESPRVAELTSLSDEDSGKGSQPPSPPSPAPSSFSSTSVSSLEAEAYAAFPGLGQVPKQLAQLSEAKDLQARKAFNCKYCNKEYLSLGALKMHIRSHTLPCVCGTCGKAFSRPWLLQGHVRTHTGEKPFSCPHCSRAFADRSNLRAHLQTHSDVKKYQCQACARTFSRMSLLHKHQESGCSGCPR
UniProt Q15672: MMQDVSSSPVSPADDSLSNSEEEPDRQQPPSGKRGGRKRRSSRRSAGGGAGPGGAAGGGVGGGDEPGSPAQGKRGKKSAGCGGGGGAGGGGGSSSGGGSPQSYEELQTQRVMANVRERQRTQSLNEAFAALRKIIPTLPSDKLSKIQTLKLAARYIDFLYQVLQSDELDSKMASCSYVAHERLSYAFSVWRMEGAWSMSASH

This test addresses Promyelocytic Leukemia Protein isoform IV fused to mRED (UniProt P29590). Kind of test: co-IP.

No constants are given. Whether binding was seen depends on the method and setting. In cells and extracts the contact can be indirect. Some binding calls cover weakened binding; strength is not graded here. Tags and fused reporters may be left off the sequences shown.

As for “SNAIL1 fused to GFP (from UniProt O95863 1-264)”, the binding result was “binds”. For “TWIST1 fused to GFP (from UniProt Q15672 1-202)”, the binding result was “binds”.

B1: TWIST2 HLH region alone (aa64 to aa124) (domain or fragment, UniProt Q8WVJ9 64-124)
chain: LQSQRILANVRERQRTQSLNEAFAALRKIIPTLPSDKLSKIQTLKLAARYIDFLYQVLQSD
Consider B1, for which the binding entry was “binds”.

B2: SLUG (SNAIL2) fused to GFP (protein, UniProt O43623 1-268)
chain: MPRSFLVKKHFNASKKPNYSELDTHTVIISPYLYESYSMPVIPQPEILSSGAYSPITVWTTAAPFHAQLPNGLSPLSGYSSSLGRVSPPPPSDTSSKDHSGSESPISDEEERLQSKLSDPHAIEAEKFQCNLCNKTYSTFSGLAKHKQLHCDAQSRKSFSCKYCDKEYVSLGALKMHIRTHTLPCVCKICGKAFSRPWLLQGHIRTHTGEKPFSCPHCNRAFADRSNLRAHLQTHSDVKKYQCKNCSKTFSRMSLLHKHEESGCCVAH
Turning to B2, the binding result is given as “binds”.

B3: TWIST2 fused to GFP (protein, UniProt Q8WVJ9 1-160)
chain: MEEGSSSPVSPVDSLGTSEEELERQPKRFGRKRRYSKKSSEDGSPTPGKRGKKGSPSAQSFEELQSQRILANVRERQRTQSLNEAFAALRKIIPTLPSDKLSKIQTLKLAARYIDFLYQVLQSDEMDNKMTSCSYVAHERLSYAFSVWRMEGAWSMSASH
As to B3, the binding result is recorded as “binds”.
